Reference: patent publication US20220175771A1, “CANCER TREATMENT MODALITIES” (priority 2017, published 2022)
pIC50: −log10 of the molar value.

What was measured:
Test in all cases: cells
NCI-H23 = settings: Homo sapiens, NCI-H23, read-out: Tax IC50
NCI-H522 = settings: Homo sapiens, NCI-H522, read-out: Tax IC50
NCI-H661 = settings: Homo sapiens, NCI-H661, read-out: Tax IC50
NCI-H1299 = settings: Homo sapiens, NCI-H1299, read-out: Tax IC50
NCIH1703 = settings: Homo sapiens, NCI-H1703, read-out: Tax IC50
NCIH2023 = settings: NCI-H2023, read-out: Tax IC50
NCIH1568 = settings: NCI-H1568, read-out: Tax IC50
NCIH838 = settings: Homo sapiens, NCI-H838, read-out: Tax IC50
NCIH1793 = settings: Homo sapiens, NCI-H1793, read-out: Tax IC50
NCIH2030 = settings: Homo sapiens, NCI-H2030, read-out: Tax IC50
A549 = settings: Homo sapiens, A549, read-out: Tax IC50
NCIH1573 = settings: Homo sapiens, NCI-H1573, read-out: Tax IC50
NCIH1944 = settings: Homo sapiens, NCI-H1944, read-out: Tax IC50
NCIH2085 = settings: read-out: Tax IC50
NCIH1581 = settings: Homo sapiens, NCI-H1581, read-out: Tax IC50
NCIH2291 = settings: Homo sapiens, NCI-H2291, read-out: Tax IC50
NCIH1734 = settings: Homo sapiens, NCI-H1734, read-out: Tax IC50
Calu-6 = settings: Homo sapiens, Calu-6, read-out: Tax IC50
NCI-H460 = settings: Homo sapiens, NCI-H460, read-out: Tax IC50
NCIH810 = settings: Homo sapiens, NCI-H810, read-out: Tax IC50
NCIH2172 = settings: NCI-H2172, read-out: Tax IC50
NCIH1993 = settings: Homo sapiens, NCI-H1993, read-out: Tax IC50
NCIH2110 = settings: NCI-H2110, read-out: Tax IC50
NCI-H441 = settings: Homo sapiens, NCI-H441, read-out: Tax IC50
NCIH2122 = settings: Homo sapiens, NCI-H2122, read-out: Tax IC50
NCIH1373 = settings: Homo sapiens, NCI-H1373, read-out: Tax IC50

- pIC50 (NCI-H23): ≤ 5.00
- pIC50 (NCI-H522): 5.15
- pIC50 (NCI-H661): 5.40
- pIC50 (NCI-H1299): ≤ 5.00
- pIC50 (NCIH1703): 5.27
- pIC50 (NCIH2023): ≤ 5.00
- pIC50 (NCIH1568): ≤ 5.00
- pIC50 (NCIH838): ≤ 5.00
- pIC50 (NCIH1793): 5.05
- pIC50 (NCIH2030): ≤ 5.00
- pIC50 (A549): ≤ 5.00
- pIC50 (NCIH1573): ≤ 5.00
- pIC50 (NCIH1944): ≤ 5.00
- pIC50 (NCIH2085): ≤ 5.00
- pIC50 (NCIH1581): ≤ 5.00
- pIC50 (NCIH2291): ≤ 5.00
- pIC50 (NCIH1734): ≤ 5.00
- pIC50 (Calu-6): 5.35
- pIC50 (NCI-H460): ≤ 5.00
- pIC50 (NCIH810): 5.62
- pIC50 (NCIH2172): ≤ 5.00
- pIC50 (NCIH1993): ≤ 5.00
- pIC50 (NCIH2110): ≤ 5.00
- pIC50 (NCI-H441): ≤ 5.00
- pIC50 (NCIH2122): ≤ 5.00
- pIC50 (NCIH1373): ≤ 5.00
Structure (SMILES): CCN(c1cc(-c2ccc(CN3CCOCC3)cc2)cc(C(=O)NCc2c(C)cc(C)[nH]c2=O)c1C)C1CCOCC1 [Compound 44, tazemetostat]
